{
  "sequences": {"note": "Chains of the proteins cited; added tags and fusions are not shown. Residues count along the entry.", "UniProt P13612, residues 34-1032": "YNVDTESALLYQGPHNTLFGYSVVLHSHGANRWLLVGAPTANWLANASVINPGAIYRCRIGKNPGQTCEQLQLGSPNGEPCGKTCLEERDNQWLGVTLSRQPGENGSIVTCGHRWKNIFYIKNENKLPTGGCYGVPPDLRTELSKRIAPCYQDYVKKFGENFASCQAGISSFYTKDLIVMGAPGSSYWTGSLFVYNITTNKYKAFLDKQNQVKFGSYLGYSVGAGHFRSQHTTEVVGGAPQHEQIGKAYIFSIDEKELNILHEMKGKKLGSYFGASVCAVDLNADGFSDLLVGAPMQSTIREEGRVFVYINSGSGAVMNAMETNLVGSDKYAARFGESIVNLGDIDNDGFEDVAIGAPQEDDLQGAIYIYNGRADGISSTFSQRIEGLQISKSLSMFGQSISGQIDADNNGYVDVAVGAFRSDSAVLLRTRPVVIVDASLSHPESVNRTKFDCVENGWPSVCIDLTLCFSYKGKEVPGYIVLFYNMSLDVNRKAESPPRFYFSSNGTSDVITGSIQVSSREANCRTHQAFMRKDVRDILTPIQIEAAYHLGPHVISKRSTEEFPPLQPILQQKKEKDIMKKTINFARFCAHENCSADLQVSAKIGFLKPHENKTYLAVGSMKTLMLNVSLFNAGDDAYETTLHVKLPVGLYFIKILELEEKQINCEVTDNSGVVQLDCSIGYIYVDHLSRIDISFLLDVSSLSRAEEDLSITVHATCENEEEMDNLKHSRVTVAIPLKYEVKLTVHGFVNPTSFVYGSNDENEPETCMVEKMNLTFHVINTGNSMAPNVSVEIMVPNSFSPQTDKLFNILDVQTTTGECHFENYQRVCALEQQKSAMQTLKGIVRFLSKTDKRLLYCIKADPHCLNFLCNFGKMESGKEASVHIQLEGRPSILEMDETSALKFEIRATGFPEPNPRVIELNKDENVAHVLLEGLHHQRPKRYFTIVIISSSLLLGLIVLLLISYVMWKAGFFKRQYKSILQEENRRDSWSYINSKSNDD"},
  "source": "paper PMC12291482",
  "biological_target": "T1, Melanoma cell adhesion molecule (MCAM) (UniProt P43121)",
  "T1 sequence": "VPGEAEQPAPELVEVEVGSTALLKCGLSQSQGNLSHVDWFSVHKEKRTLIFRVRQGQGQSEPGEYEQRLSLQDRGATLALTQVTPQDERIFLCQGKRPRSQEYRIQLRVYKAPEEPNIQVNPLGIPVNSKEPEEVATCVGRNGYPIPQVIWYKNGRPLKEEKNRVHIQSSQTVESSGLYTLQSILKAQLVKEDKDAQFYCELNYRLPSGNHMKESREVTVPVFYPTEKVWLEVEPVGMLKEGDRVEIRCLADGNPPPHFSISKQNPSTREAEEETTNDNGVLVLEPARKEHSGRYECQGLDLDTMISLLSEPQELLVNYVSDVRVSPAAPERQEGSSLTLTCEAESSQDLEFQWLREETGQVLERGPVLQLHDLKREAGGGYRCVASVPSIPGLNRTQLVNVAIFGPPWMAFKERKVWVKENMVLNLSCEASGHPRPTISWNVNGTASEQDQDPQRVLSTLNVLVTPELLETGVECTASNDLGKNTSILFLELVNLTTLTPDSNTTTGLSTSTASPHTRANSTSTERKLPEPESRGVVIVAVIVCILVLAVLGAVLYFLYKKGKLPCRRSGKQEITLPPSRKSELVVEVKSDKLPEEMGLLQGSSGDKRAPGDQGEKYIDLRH",
  "experiment": "affinity purification with mass spectrometry; immunoprecipitation coupled with mass spectrometry (IP/MS) of MCAM from MCAM-overexpressing HCC827 cells",
  "note": "No constants are given. Whether binding was seen depends on the method and setting. In cells and extracts the contact can be indirect. These calls come from enrichment with a bait or labelling near it, and not all partners need be listed.",
  "data": [
    {"substance": "integrin α4 (from UniProt P13612 34-1032)", "values": [
      {"measurement": "binding", "value": "binds"}
    ]},
    {"substance": "integrin α6 (human (endogenous in HCC827))", "values": [
      {"measurement": "binding", "value": "binds"}
    ]}
  ]
}
